Test results reported in PubChem BioAssay AID1347076 (National Center for Advancing Translational Sciences (NCATS), 2019).
The whole screen tested about 400,000 compounds, of which about 13,000 (3.2%) were called active. This list was built around the results that the source calls inconclusive (neither active nor inactive); the mix of calls is not that of the screen. Calls come from the whole dose curve; as a rule, active = well fitted cell-killing curve with a large enough effect; inconclusive = small, poorly fitted or top-dose-only effect, or effect the other way; inactive = flat fitted curve, though single readings scatter. A potency beside an inconclusive call is a rough fit, not a confirmed value.

test: qHTS assay for MDR1-selective chemotherapeutics: Primary screen using the drug-selected MDR subline cells KB-V1; conditions: KB-V1 MDR cells viability, CellTiter-Glo, 72 h; activity change, negative = cytotoxicity: at 46.1 µM (top of the series); note: nearly all actives have a fitted effect of over 60% in size
Method in brief: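 Drug-selected KB-V1 cells, grown in DMEM lacking phenol red with 10% FBS, receive compound titrations; after three days at 37 degrees C, surviving cell ATP is quantified by CellTiter-Glo luminescence and responses normalized and curve-fitted.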
% is set by controls: 0 for no effect and ±100 for the full control effect; potency is the fitted concentration of half-maximal effect.

SMILES	activity change, negative = cytotoxicity	Potency
COc1ccccc1C(=O)Nc1cc2c(cc1C(=O)O)OCCCO2	inactive: -10.7%	–
COc1cc2c(cc1OC)C(C)N(S(=O)(=O)c1cn(C)c(C)n1)CC2 (stereo not drawn)	–	inconclusive: 29.1 µM [rising, single point]
Cn1c(=O)c2c(SCC(=O)N3CCOCC3)nc(-c3ccccc3F)nc2n(C)c1=O	–	inconclusive: 29.1 µM [cytotoxic, single point]
Cc1c(-c2ccccc2)oc2c(C(=O)OCC(=O)Nc3ccc(F)cc3)cccc2c1=O	inconclusive: 19.5%	–
CC1CCN(c2cc(N3CCOCC3)c([N+](=O)[O-])cc2F)CC1	–	inconclusive: 29.1 µM [cytotoxic, single point]
Cc1ccc(OCc2cc(C(=O)N3CCCC3)no2)cn1	inactive: 0%	–
CCCCCCN1C=C/C(=C\C=C(C#N)C#N)c2ccccc21	–	inconclusive: 6.51 µM [cytotoxic, partial curve]
CCc1ccc(-n2c(-c3ccccc3)c(C)n3c4c(=O)n(C)c(=O)n(C)c4nc23)cc1	inactive: -24.4%	–
O=C(NCC1OCCc2ccccc21)c1ccc(NC(=O)c2ccc(Cl)cc2)cc1 (stereo not drawn)	–	inconclusive: 5.8 µM [cytotoxic, partial curve]
Oc1ccccc1C1=Nc2ccccc2N=C(c2ccco2)C1	–	inconclusive: 5.8 µM [cytotoxic, full curve]
Cc1noc(-c2ccc(Cl)cc2)c1C(=O)O/N=C(\N)c1ccc(C(C)(C)C)cc1	–	active: 18.4 µM
Cc1ccc2cccc(NC(=O)c3ccc(-c4ccc(Br)cc4)o3)c2n1	–	inconclusive: 23.1 µM [rising, single point]
Cc1ccc(S(=O)(=O)Nc2cccc(C(=O)NC3CCN(Cc4ccccc4)CC3)c2)cc1F	inactive: -2.97%	–
COc1ccc(OCC(=O)Nc2ccc3c(c2)nc(CCN2CCCCC2)n3C)cc1	–	inconclusive: 18.4 µM [rising, single point]
O=C(CCn1c(=O)sc2ccccc21)NC1CCCCC1	inactive: -6.23%	–
COc1cccc(C2C(C(=O)Nc3ccccc3OC)=C(C)Nc3nc4ccccc4n32)c1 (stereo not drawn)	–	inconclusive: 25.9 µM [cytotoxic, single point]
CC1CCCC(C)N1CCCNC(=O)Cn1cc2c(n1)CCCC2 (stereo not drawn)	–	inconclusive: 8.2 µM [cytotoxic, partial curve]
CCS(=O)(=O)c1ccc2oc(SCC(=O)N3c4ccccc4CC3C)nc2c1 (stereo not drawn)	–	active: 5.17 µM
CCOC(=O)C(NC(=O)CC(C)C)(Nc1sc(C)c(CC)c1C#N)C(F)(F)F (stereo not drawn)	–	inconclusive: 5.17 µM [cytotoxic, full curve]
CCc1cccc(NC(=O)c2ccc(Cn3nc(C)cc3C)o2)c1	–	active: 14.6 µM
COc1ccc(CCCNC(=O)C2(C)Cc3c(-c4ccc(NC(C)=O)cc4)ccnc3O2)cc1 (stereo not drawn)	inactive: -4.02%	–
Clc1cccc(Nc2ncnc3ccc(Br)cc23)c1	–	inconclusive: 25.9 µM [cytotoxic, single point]

SMILES	activity change, negative = cytotoxicity	Potency
CCOc1ccc(NC(=O)CN(C)C(=O)CC(NC(=O)c2ccccc2)c2ccccc2)cc1OCC (stereo not drawn)	inactive: -14.1%	–
CC(C)[C@H]1COCCS(=O)(=O)N1Cc1ccccc1-c1cccc(Cl)c1	–	inconclusive: 29.1 µM [cytotoxic, single point]
Cc1cc(C)c(-c2csc(NC(=O)c3cc([N+](=O)[O-])ccc3N3CCOCC3)n2)c(C)c1	–	inconclusive: 23.1 µM [cytotoxic, partial curve, poor fit]
Cc1nn(C)cc1S(=O)(=O)N1CCN(c2ccccc2F)CC1	–	inconclusive: 18.4 µM [cytotoxic, single point]
O=C(CSc1nnc(CNC(=O)c2ccccc2)n1-c1cccc(Cl)c1)Nc1ccccc1F	inactive: 4.48%	–
COc1ccc2oc(=O)c(C(=O)NCCc3c(C)[nH]c4ccc(Br)cc34)cc2c1	–	inconclusive: 18.4 µM [cytotoxic, single point]
O=C(O)CCNc1ccc(NCCC(=O)O)c2c1C(=O)c1ccccc1C2=O	inactive: 0.844%	–
Cc1cc(C(=O)c2ccc(C(C)(C)C)cc2)c(NC(=O)CCl)s1	–	inconclusive: 20.6 µM [cytotoxic, single point]
COc1ccccc1N1CCN(C(=O)CSc2nnnn2C2CC2)CC1	–	inconclusive: 10.3 µM [cytotoxic, partial curve]
Cc1cc(C)c(S(=O)(=O)c2ccccc2)c(OC(=O)c2c(Cl)cc(Cl)cc2Cl)n1	–	inconclusive: 29.1 µM [cytotoxic, single point]
CCc1ccc(NC(=O)[C@H](Cc2c[nH]c3ccccc23)NC(=O)[C@@H]2Cc3ccccc3CN2)cc1	–	inconclusive: 16.4 µM [cytotoxic, single point]
CCOC(=O)c1c(C)oc2nc(C)nc(N3CCN(c4ccccc4)CC3)c12	–	inconclusive: 16.4 µM [cytotoxic, single point]
Cc1ccc(-n2ncc3c(=O)n(CC(=O)N4CCCc5ccccc54)cnc32)cc1C	–	active: 18.4 µM
CCOC(=O)c1sc(NC(=O)CSCc2c(C)noc2C)nc1C	–	inconclusive: 4.61 µM [cytotoxic, full curve, poor fit]
COc1ccc(NS(=O)(=O)c2cc(NC(=O)c3cccs3)ccc2N2CCOCC2)cc1	–	inconclusive: 25.9 µM [cytotoxic, single point]
CN(CC1COc2ccccc2O1)C(=O)c1ccc(Cl)c(S(=O)(=O)N2CCCCCC2)c1 (stereo not drawn)	–	inconclusive: 32.6 µM [cytotoxic, partial curve, poor fit]
c1ccc2oc(-c3[nH]ncc3CN3CCSCC3)cc2c1	inactive: 1.08%	–
O=C1c2ccccc2C(c2nnnn2Cc2ccccc2)N1CCc1c[nH]c2ccccc12 (stereo not drawn)	–	inconclusive: 18.4 µM [cytotoxic, partial curve]
CCC(=O)c1ccc(OCC(=O)OCC(=O)N2CCc3ccccc3C2)cc1	–	inconclusive: 29.1 µM [rising, single point]
CC(=NCCc1c(C)[nH]c2ccc(OCc3ccccc3)cc12)C1=C(O)CC(c2ccccc2)CC1=O (stereo not drawn)	–	inconclusive: 2.06 µM [cytotoxic, full curve]
COC(=O)c1c(NC(=O)CN2C(=O)NC3(CCc4ccccc4C3)C2=O)sc2c1CCCCC2 (stereo not drawn)	–	inconclusive: 23.1 µM [cytotoxic, partial curve, poor fit]

Single records, as listed above. Values in the order: activity change, negative = cytotoxicity | Potency
Cc1ccc(S(=O)(=O)Nc2cccc(C(=O)NC3CCN(Cc4ccccc4)CC3)c2)cc1F is listed as inactive: -2.97% | –
COc1ccc2oc(=O)c(C(=O)NCCc3c(C)[nH]c4ccc(Br)cc34)cc2c1 is listed as – | inconclusive: 18.4 µM [cytotoxic, single point]
